# Reference: PubChem BioAssay AID540256 (National Center for Advancing Translational Sciences (NCATS), 2011)
# Screen size: about 300,000 compounds; about 3,700 (1.2%) were called active. Inconclusive means that the source gave no clear call. Such entries were picked first, then a sample of the others. Calls follow the shape of the full dose curve; tested in HEK293 cells. Potencies of inconclusive entries are doubtful fits and often do not repeat.
# Assay: qHTS for Inhibitors of binding or entry into cells for Lassa Virus; also: nearly all actives have a fitted effect of over 50% in size
# Details: Lassa virus pseudotype entry inhibition, cell reporter; series mostly up to 37.9 µM
# Potency is read from the fitted curve at half-maximal effect.
row,Compound,Potency
1,O=c1c(-c2ccc(Br)cc2)[n+]([O-])c2ccccc2n1OCc1ccccn1,inactive
2,Cc1sc2ncnc(SCc3ccco3)c2c1C,inactive
3,O=C(c1nnsc1S(=O)(=O)c1ccc(Cl)cc1)N1CCOCC1,"inconclusive: 15.8 µM [inhibitor, single point]"
4,CC1CCC2(CC1)NC(=O)N(CC(=O)c1ccc(Cl)s1)C2=O (stereo not drawn),"inconclusive: 11.2 µM [inhibitor, single point]"
5,c1ccc2sc(C3(N4CCCCC4)CCCCC3)cc2c1,"inconclusive: 9.2 µM [inhibitor, partial curve]"
6,COC(=O)c1cn(NC(=O)C2CCCO2)c(=O)c2ccccc12 (stereo not drawn),inactive
7,O=C(CNC(=O)c1ccccc1Cl)NCCc1cccs1,"inconclusive: 0.282 µM [inhibitor, partial curve, poor fit]"
8,CSc1nc(-c2ccc(C)cc2)nc(C(Cl)Cl)n1,"inconclusive: 8.2 µM [inhibitor, partial curve, poor fit]"
9,Cc1nn(-c2ccccc2)c(C)c1NC(=O)COC(=O)/C=C/c1ccccc1,inactive
10,Cc1ccccc1N1CCN(S(=O)(=O)c2nnc(NC(=O)c3ccccc3)s2)CC1,"inconclusive: 31.6 µM [activator, single point]"
11,c1ccc(Cc2nnc(SCc3nc(-c4cccs4)no3)n2-c2ccccc2)cc1,"inconclusive: 12.6 µM [inhibitor, partial curve]"
12,Cc1cccc(C)c1OCC(=O)NNC(=O)c1ccoc1C,"inconclusive: 12.6 µM [activator, partial curve]"
13,CC1CCCCN1C(=O)CNCc1ccc(F)cc1 (stereo not drawn),"inconclusive: 12.6 µM [activator, single point]"
14,COc1ccc(Cn2nnnc2C(CC(C)C)N2CCN(c3ccccc3)CC2)cc1 (stereo not drawn),"inconclusive: 3.16 µM [inhibitor, partial curve]"
15,COc1ccc(C(=O)Nc2cc(C(C)C)c(O)c(S(=O)(=O)c3ccc(OC)cc3)c2C)cc1,inactive
16,CCOc1ccc(NC(=O)CCCNC(=O)Cn2cnc3sc(C)c(C)c3c2=O)cc1,"inconclusive: 31.6 µM [inhibitor, single point]"
17,COc1ccc(CCC(=O)NC(C)C2CCCO2)cc1 (stereo not drawn),"inconclusive: 22.4 µM [inhibitor, single point]"
18,O=C(O)c1cnn(-c2ccccc2)c1C(F)(F)F,inactive
19,CCOc1ccc(C(=O)Nc2ccc(N3CCCC3)cc2)cc1,"inconclusive: 0.891 µM [inhibitor, single point]"
20,Cc1cccc2sc(NC(=O)CSCc3ccccc3)nc12,"inconclusive: 20.6 µM [inhibitor, single point]"
21,CNC(=O)c1ccsc1NC(=O)c1ccc(S(=O)(=O)N2CCc3ccccc32)cc1,"inconclusive: 29.1 µM [inhibitor, single point]"
22,COc1ccc(NC(=O)c2ccccc2C)cc1,"inconclusive: 5.62 µM [inhibitor, single point]"
23,CCOCCCNC(=O)C(c1ccc(OC)cc1)N(Cc1ccc2c(c1)OCO2)C(=O)c1ccccn1 (stereo not drawn),"inconclusive: 0.891 µM [inhibitor, single point]"
24,Cc1cc(C)cc(OCc2nnc(SCC(=O)c3ccccc3)o2)c1,"inconclusive: 5.17 µM [inhibitor, full curve, poor fit]"
25,Cc1ccc(C)c(COC(=O)c2cccc(S(=O)(=O)N3CCCC3)c2)c1,"inconclusive: 10 µM [inhibitor, partial curve, poor fit]"

# A draw from above in order of SMILES length, high to low:
row,Compound,Potency
21,CNC(=O)c1ccsc1NC(=O)c1ccc(S(=O)(=O)N2CCc3ccccc32)cc1,"inconclusive: 29.1 µM [inhibitor, single point]"
10,Cc1ccccc1N1CCN(S(=O)(=O)c2nnc(NC(=O)c3ccccc3)s2)CC1,"inconclusive: 31.6 µM [activator, single point]"
16,CCOc1ccc(NC(=O)CCCNC(=O)Cn2cnc3sc(C)c(C)c3c2=O)cc1,"inconclusive: 31.6 µM [inhibitor, single point]"
9,Cc1nn(-c2ccccc2)c(C)c1NC(=O)COC(=O)/C=C/c1ccccc1,inactive
25,Cc1ccc(C)c(COC(=O)c2cccc(S(=O)(=O)N3CCCC3)c2)c1,"inconclusive: 10 µM [inhibitor, partial curve, poor fit]"
3,O=C(c1nnsc1S(=O)(=O)c1ccc(Cl)cc1)N1CCOCC1,"inconclusive: 15.8 µM [inhibitor, single point]"
6,COC(=O)c1cn(NC(=O)C2CCCO2)c(=O)c2ccccc12 (stereo not drawn),inactive
19,CCOc1ccc(C(=O)Nc2ccc(N3CCCC3)cc2)cc1,"inconclusive: 0.891 µM [inhibitor, single point]"
12,Cc1cccc(C)c1OCC(=O)NNC(=O)c1ccoc1C,"inconclusive: 12.6 µM [activator, partial curve]"
5,c1ccc2sc(C3(N4CCCCC4)CCCCC3)cc2c1,"inconclusive: 9.2 µM [inhibitor, partial curve]"
18,O=C(O)c1cnn(-c2ccccc2)c1C(F)(F)F,inactive
13,CC1CCCCN1C(=O)CNCc1ccc(F)cc1 (stereo not drawn),"inconclusive: 12.6 µM [activator, single point]"
22,COc1ccc(NC(=O)c2ccccc2C)cc1,"inconclusive: 5.62 µM [inhibitor, single point]"
2,Cc1sc2ncnc(SCc3ccco3)c2c1C,inactive

# (more compounds)

row,Compound,Potency
1,COc1ccc(-c2onc3ccc(Cl)cc23)cc1,"inconclusive: 10 µM [activator, partial curve]"
2,CCOc1ccccc1NC(=O)c1ccc2ccccc2c1,inactive
3,Cc1ccc(C)c(Cn2nnc3c(=O)[nH]c(C4CCCN(C(=O)C5CCCCC5)C4)nc32)c1 (stereo not drawn),"inconclusive: 8.91 µM [inhibitor, partial curve, poor fit]"
4,CCOC(=O)N1CCN(C(=O)Cn2nc(C)c3sc4ccccc4c3c2=O)CC1,inactive
5,Cc1cc(C)cc(NC(=O)c2cc(S(=O)(=O)N3CCCCC3)c[nH]2)c1,"inconclusive: 1.12 µM [activator, partial curve, poor fit]"
6,S=C(Nc1ccccc1)N1CCN(C(=S)c2ccccc2)CC1,"inconclusive: 20 µM [inhibitor, partial curve, poor fit]"
7,O=C(c1ccccc1Cc1ccccc1)N1CCN(S(=O)(=O)c2ccccc2Br)CC1,inactive
8,CCOC(=O)c1c(NC(=O)Cn2ccsc2=N)sc(C)c1C,"inconclusive: 39.8 µM [inhibitor, partial curve, poor fit]"
9,Cc1ccc(NC(=O)c2c(C)oc3ncnc(N4CCCCC4)c23)c(C)c1,inactive
10,Cc1ccc(CSc2nnc(C)c(=O)n2N)cc1,inactive
11,Cc1ccc(CNC(=O)COC(=O)c2cncc(Br)c2)cc1,inactive
12,COc1cc2c(cc1OC)-c1cc(OCc3ccccc3Cl)nc(=O)n1CC2,"inconclusive: 23.1 µM [inhibitor, partial curve]"
13,O=C(/C=C/Nc1ccccc1F)c1ccc(Br)cc1,"inconclusive: 10 µM [inhibitor, partial curve, poor fit]"
14,Cc1ccc2cc3c(nc2c1)N(Cc1ccco1)CC3,"inconclusive: 0.891 µM [activator, single point]"
15,Cc1ccc(C=Nc2ccc(N(C)C)cc2)o1,"inconclusive: 32.6 µM [activator, single point]"
16,COC[C@H](NS(=O)(=O)c1ccc(Br)cc1F)[C@@H](O)c1ccccc1,"inconclusive: 4.45 µM [activator, single point]"
17,CN(CC(=O)Nc1cccc(F)c1)C(=O)c1cccc(S(=O)(=O)N2CCN(c3ccccc3)CC2)c1,inactive
18,COc1ccc(CNC(=O)Cc2ccc(NC(=O)N3CCCCc4ccccc43)cc2)cc1,"inconclusive: 14.1 µM [inhibitor, single point]"
19,O=C(Nc1ccc(C(F)(F)F)cc1)C1(c2cccs2)CCOCC1,inactive
20,CC(=O)Nc1cccc(C(=O)OC(C)C(=O)NC2CCCc3ccccc32)c1 (stereo not drawn),inactive
21,Cc1ccc(NCc2ccncc2)c(Br)c1,"inconclusive: 20 µM [inhibitor, single point]"
22,CCOc1ccc(C(=O)Nc2ccc(N3CCN(C)CC3)cc2)cc1[N+](=O)[O-],"inconclusive: 35.5 µM [activator, single point]"
23,CC1CCCN(c2ncnc3c2nnn3C)C1 (stereo not drawn),inactive
24,COc1ccc(/C=C/C(=O)N(C)C2CCCCC2)cc1Br,"inconclusive: 14.1 µM [inhibitor, single point]"
25,Cc1ccc(C(C(=O)NC2CCCCC2)N(Cc2ccco2)C(=O)Cn2cnc3ccccc32)cc1 (stereo not drawn),"inconclusive: 35.5 µM [inhibitor, single point]"

row,Compound,Potency
1,CC(=O)Nc1ccc(S(=O)(=O)N(c2cccnc2)S(=O)(=O)c2ccc(NC(C)=O)cc2)cc1,active: 0.82 µM
2,COc1ccc(/C=C/C(=O)Nc2cccc(F)c2)cc1,inactive
3,CN(C)S(=O)(=O)c1ccc2c(c1)N(CC(=O)N1CCC(C(N)=O)CC1)CCS2,inactive
4,Cc1ccc(C(=O)c2cc([N+](=O)[O-])ccc2N2CCOCC2)c(C)c1,"inconclusive: 3.55 µM [inhibitor, partial curve, poor fit]"
5,O=C(Nc1nnc2n1CCS2)c1cc(C(F)(F)F)cc(C(F)(F)F)c1,"inconclusive: 0.891 µM [activator, full curve, poor fit]"
6,CO/N=C/c1ccc(Sc2ccccc2N)c([N+](=O)[O-])c1,"inconclusive: 10 µM [inhibitor, partial curve]"
7,O=C(NC(=Nc1nc2ccccc2o1)NC(=O)c1ccccc1)c1ccccc1,inactive
8,O=C(COc1ccccc1Br)Nc1ccc2c(c1)OCCCO2,"inconclusive: 2.51 µM [activator, partial curve, poor fit]"
9,O=C(c1ccc(F)cc1)C(C(=O)N1CCCCC1)n1ccccc1=O (stereo not drawn),inactive
10,O=C(COC(=O)c1ccc[nH]c1=O)Nc1ccc2c(c1)OC(F)(F)O2,"inconclusive: 10 µM [activator, partial curve, poor fit]"
11,COc1ccc(C(=O)N2CC(=O)Nc3ccc(F)cc3C2c2ccccc2)cc1 (stereo not drawn),inactive
12,COc1cccc(CNC(=O)Nc2ccc3c(c2)N(C)C(=O)c2ccccc2S3)c1,inactive
13,COc1ccc(-c2nnc(SCC(=O)O)n2Cc2ccccc2)cc1,inactive
14,O=C(O)c1cccc2c1C(=O)N(Cc1ccccc1)C2,inactive
15,CCCCC1OC23CCCCC2C(C#N)(C#N)C1(C#N)C(=N)O3 (stereo not drawn),inactive
16,Cc1c(C(=O)Nc2ccc(C(=O)Nc3ccccc3)cc2)cccc1[N+](=O)[O-],inactive
17,CCN1C(=O)/C(=C\c2cccn2-c2ccc([N+](=O)[O-])cc2)N(CC)C1=S,inactive
18,Cc1ccc(C(=O)COC(=O)C2CC(=O)N(c3nc(-c4ccccc4)cs3)C2)cc1C (stereo not drawn),"inconclusive: 18.3 µM [inhibitor, single point]"
19,Cc1ccc(C(C#N)c2ccc3c(C(F)(F)F)cc(C(F)(F)F)nc3n2)cc1 (stereo not drawn),"inconclusive: 17.8 µM [inhibitor, single point]"
20,Cc1ccc([N+](=O)[O-])cc1S(=O)(=O)Nc1ccccn1,inactive
21,O=C1c2cc(S(=O)(=O)NCCO)ccc2-c2ccc(S(=O)(=O)NCCO)cc21,inactive
22,CS(=O)(=O)c1ccccc1-c1nnc(NC(=O)c2ccc(S(=O)(=O)N3CCCC3)cc2)o1,inactive
23,COCCCn1c(=O)c2sccc2n(Cc2cccc(F)c2)c1=O,"inconclusive: 15.8 µM [inhibitor, single point]"
